Results from PMC8598068, “Flagellin lysine methyltransferase FliB catalyzes a [4Fe-4S] mediated methyl transfer reaction” (PLoS Pathogens, 2021).
Results are given in words; binding and its absence hold for the method and conditions named. Some entries that bind do so weakly or less than the wild type. Where a sequence is shown, tags or fusion partners need not be part of it.

Columns and labels:
[1] = target: FleBt-FliB fusion protein (flagellin lysine methyltransferase FliB fused to the C-terminus of truncated FleB) (S. enterica serovar Typhimurium strain SL1344) (UniProt Q56106); assay: atomic force microscopy; purified ftFliB settled on a flat MICA surface, imaged in buffer; both purified
[2] = target: FleBt-FliB fusion protein (flagellin lysine methyltransferase FliB fused to the C-terminus of truncated FleB) (S. enterica serovar Typhimurium strain SL1344) (UniProt Q56106); assay: negative-stain transmission electron microscopy; purified ftFliB on a carbon-coated copper grid, 1% uranyl acetate, 120 kV; both purified
[3] = target: FleBt-FliB fusion protein (flagellin lysine methyltransferase FliB fused to the C-terminus of truncated FleB) (S. enterica serovar Typhimurium strain SL1344) (UniProt Q56106); assay: SEC; TSK-GEL BioAssist G4SWXL column, buffer A (50 mM Tris-HCl, 150 mM NaCl, 10% glycerol, pH 8.5); ftFliB compared with the FleBt tag; both purified

Measured: binding

B1: FleBt-FliB fusion protein (flagellin lysine methyltransferase FliB fused to the C-terminus of truncated FleB) (enzyme)
chain: MKEITVTEPAFVTRFSCSGSACRDHCCKGWKITLDKTTVKKYLASKDTTIRTIAQDHIILLKKNNSHWGEIKLPSALGNCPYLDEDRLCRVQKTLGAKALSHTCSSFPRAHHTYKNEVRNSLSLACPEVTSRILNDPDAMALSEKTIIQQTFNTAPLFPAQQKLLNLFCLSLINHANSSTEAALYALIKFVMYAQKFAKIDDAALGELEQVYAALLEQLQTGVLAQELMNIAPDSKVKTSLVLQMQDYFRSLPLNRGSVILDHYIQCLLRVLTAEEGVSMEQKVSDIESSLARCLQANEQQKNWAFRNLILYKIWENNFPNQPNVDPLRALYIIVAEYAFIKLLTAASVHERGRIEWDDVTNIVYSFHSRSQHNSEVAKNFHRHIETVRTGDDLSMIHLLT
notes: also called ftFliB; source: E. coli BL21 (DE3), purified (HisTrap HP, SEC); copies: 14
binds: all assays above
